Test system: human PB monocytes
Assay: intracellular TNFα in human peripheral blood monocytes by flow cytometry
Assay type: cell-based
Source text: Identification of TNFα positive monocytes in peripheral blood by flow cytometry: PB monocytes expressing TNF in response to LPS or PG can be identified and counted using flow cytometry with fluorescent antibodies to stain TNFα. To identify the percentage of monocytes expressing TNFα, PB was stimulated with LPS or PG, stained for surface markers to distinguish monocytes from other leukocytes, and stained for intracellular TNFα to identify monocytes expressing TNFα. The percentage of monocytes positive for TNFα was compared among samples stimulated with LPS, PG, with and without pretreatment with (R)-LKE1, and non-stimulated samples.
The fluorescent antibodies used to identify monocytes surface markers were anti-human CD14-phycoerythrin (PE) and andtiCD16b-fluorescein isothyocyanate (FITC), based on staining intensity for each marker. Monocytes are positive for CD14 and negative for CD16b. This method of separating monocytes from neutrophils was confirmed by sorting cells based on CD14/CD16b intensity, preparing slides, staining with May-Grunwald Giemsa and confirming by morphology.
For analysis of CD14 positive, CD16b negative cells we used dot plots. We first excluded lymphocytes from the analysis by their forward scatter (FSC) and side scatter (SSC) properties, drawing a monocyte/neutrophil gate to exclude lymphocytes (not shown). We then identified CD14+, (y-axis) CD16b− (x-axis) cells by comparison with an unstained sample.
A third dye, PE-Cye7 was used for intracellular cytokine staining of TNFα. The TNFα positive monocytes were identified on a second dot plot of SSC vs. TNFα PE-Cye7 for monocytes only. Cells were counted as positive for TNFα expression if the intensity of PE-Cye7 was greater than in the non-stimulated control. The percent of TNFα positive monocytes was calculated using number positive/total number of monocytes.
PB, heparinized, was diluted 1:3 with DMEM. Diluted blood was placed in 1.0 ml aliquots into wells of a non tissue culture plate. PB was pre-incubated at 37° C. for one hour with LKE (1 mM) or the diluent DMSO (10 μl). […]

For `CCOC(=O)[C@@H]1CSCC(C(=O)O)=N1` [(R)-LKE1], the “total number of monocytes per sample of 10,000 cells” value (1 mM pre-incubation, PG 10 ug/ml) was 527, the “total number of monocytes per sample of 10,000 cells” value (1 mM pre-incubation, Ultra Pure LPS 1 μg/ml) was 471 and the “total number of monocytes per sample of 10,000 cells” value (1 mM, no stimulus) was 727.

Source: US7683055B2, “Lanthionine-related compounds for the treatment of inflammatory diseases” (Oklahoma Medical Research Foundation, priority 2006, dated 2010)
